In PubChem BioAssay AID328 (DTP/NCI, 2004):
The list shows only some results of the screen, not a fair sample: it is rich in T/C values a quarter to a half above the control, in often repeated tests (any T/C) and in doses without a T/C. Further doses and runs are listed elsewhere. T/C gives the treated animals as a percentage of the vehicle group. Some entries give survivors of the animals treated and no T/C: the source holds a T/C of zero for them, seemingly a mark for toxic or unscored doses. Some doses without a T/C left all or most animals alive at the check, yet need not have been tolerated: the source hardly ever lists a survival T/C far under the control, and the zero likely stands for such cases as well. Counts of survivors are from the toxicity check (mostly the fifth day) where no day follows; animals may have died later. Schedule codes are those of the source, read here as Q, the interval in days (D) or hours (H), X, the number of doses. Some entries were tested several times; the results are listed from low to high. Where survival is the endpoint, this PubChem deposit counts one and a half times the control or more as active, and values a quarter to a half above the control carry no call in these data; other NCI protocols may use other cut-offs. Some T/C values are followed by the survivors on the day toxicity was checked, most often the fifth; without a count, all were alive then.

Test system: BDF1 mice, P388 leukemia ip, median survival T/C
Assay: NCI In Vivo Anticancer Drug Screen. Data for tumor model P388 Leukemia (intraperitoneal) in B6D2F1 (BDF1) mice
Conditions: T/C endpoint: median survival time, higher T/C = longer survival
In short: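 Read-out is survival of treated animals expressed relative to the vehicle group, as a T/C ratio.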

[1] = dose: 50.0 mg/kg/injection, schedule: Q01DX009 (ip), vehicle: saline with Tween-80
[2] = dose: 200.0 mg/kg/injection, schedule: Q04DX003 (ip), vehicle: saline with Tween-80
[3] = dose: 100.0 mg/kg/injection, schedule: Q01DX009 (ip), vehicle: Klucel (hydroxypropylcellulose) (HPC)
[4] = dose: 50.0 mg/kg/injection, schedule: Q01DX009 (ip), vehicle: water
[5] = dose: 100.0 mg/kg/injection, schedule: Q01DX009 (ip), vehicle: saline
[6] = dose: 400.0 mg/kg/injection, schedule: Q01DX009 (ip), vehicle: saline
[7] = dose: 100.0 mg/kg/injection, schedule: Q04DX003 (ip), vehicle: Klucel (hydroxypropylcellulose) (HPC)
[8] = dose: 200.0 mg/kg/injection, schedule: Q01DX009 (ip), vehicle: Klucel (hydroxypropylcellulose) (HPC)
[9] = dose: 400.0 mg/kg/injection, schedule: Q01DX009 (ip), vehicle: Klucel (hydroxypropylcellulose) (HPC)
[10] = dose: 50.0 mg/kg/injection, schedule: Q01DX009 (ip), vehicle: Klucel (hydroxypropylcellulose) (HPC)
[11] = dose: 12.5 mg/kg/injection, schedule: Q01DX009 (ip), vehicle: Klucel (hydroxypropylcellulose) (HPC)

## FC(F)(F)C(F)(F)C(F)(F)c1nc2nc(Cl)c(Cl)nc2[nH]1
dose: 25.0 mg/kg/injection, schedule: Q01DX009 (ip), vehicle: saline with Tween-80
  survivor count: 3 of 6 and 4 of 6
[1]
  survivor count: 3 of 6
dose: 100.0 mg/kg/injection, schedule: Q01DX009 (ip), vehicle: saline with Tween-80
  survivor count: 1 of 6
[2]
  survivor count: 4 of 6
dose: 400.0 mg/kg/injection, schedule: Q04DX003 (ip), vehicle: saline with Tween-80
  survivor count: 2 of 6

## N#CC(=C=[N-])[n+]1ccccc1
dose: 40.0 mg/kg/injection, schedule: Q01DX009 (ip), vehicle: Klucel (hydroxypropylcellulose) (HPC)
  survivor count: 2 of 6

## Cc1ccc(C(=O)NCCCOc2ccc(N)cc2Cl)cc1S(=O)(=O)F
dose: 400.0 mg/kg/injection, schedule: Q01DX009 (ip), vehicle: saline with Tween-80
  survivor count: 2 of 6

## COc1ccc(C(=O)CC(=O)CC(=O)c2ccccc2)cc1
[3]
  survivor count: 6 of 6

## O=c1[nH]c2nccnc2[nH]1
dose: 12.5 mg/kg/injection, schedule: Q01DX009 (ip), vehicle: water
  survivor count: 6 of 6
dose: 25.0 mg/kg/injection, schedule: Q01DX009 (ip), vehicle: water
  survivor count: 6 of 6
[4]
  T/C: 129 % of control
  survivor count: 6 of 6
dose: 200.0 mg/kg/injection, schedule: Q01DX009 (ip), vehicle: water
  survivor count: 6 of 6
dose: 400.0 mg/kg/injection, schedule: Q01DX009 (ip), vehicle: water
  survivor count: 6 of 6

## CC(Br)C(=O)c1ccc(OCc2ccccc2)cc1 (stereo not drawn)
dose: 200.0 mg/kg/injection, schedule: Q01DX009 (ip), vehicle: saline with Tween-80
  T/C: 128 % of control [5 of 6 alive]

## NC(COc1ccccc1)Cc1ccccc1 (stereo not drawn)
dose: 200.0 mg/kg/injection, schedule: Q04DX003 (ip), vehicle: saline
  survivor count: 0 of 6
dose: 200.0 mg/kg/injection, schedule: Q04DX003 (ip), vehicle: suspension in saline
  survivor count: 0 of 6
dose: 400.0 mg/kg/injection, schedule: Q04DX003 (ip), vehicle: saline
  survivor count: 0 of 6

## Cc1cc(=O)[nH]c2c1CCCCC2
dose: 200.0 mg/kg/injection, schedule: Q01DX001 (ip), vehicle: saline sonified
  survivor count: 5 of 6

## CCCCCCCCN(N)C12CC3CC(CC(C3)C1)C2
dose: 50.0 mg/kg/injection, schedule: Q01DX009 (ip), vehicle: saline
  survivor count: 5 of 6
[5]
  survivor count: 6 of 6

## CCOC(=O)c1cnc2c(OC)cccc2c1Cl
dose: 32.0 mg/kg/injection, schedule: Q01DX009 (ip), vehicle: saline
  survivor count: 6 of 6

## CC1CCOS(=O)O1 (stereo not drawn)
dose: 80.0 mg/kg/injection, schedule: Q01DX010 (ip), vehicle: saline
  survivor count: 6 of 6

## CN(C)C1=C(N2CC2)C(=O)C(N(C)C)=C(N2CC2)C1=O
dose: 0.12 mg/kg/injection, schedule: Q01DX009 (ip), vehicle: saline
  T/C: 131 % of control

## CN1CCOC1=Nc1ccc(Cl)cc1
[2]
  survivor count: 6 of 6

## COc1ccc(C(O)(CS(C)=O)c2cccs2)cc1 (stereo not drawn)
[1]
  T/C: 146 % of control

## CCc1ccc(C2=C(O)C(=O)C(c3ccccc3)=C(O)C2=O)cc1
dose: 25.0 mg/kg/injection, schedule: Q01DX010 (ip), vehicle: saline
  T/C: 127 % of control
dose: 75.0 mg/kg/injection, schedule: Q01DX010 (ip), vehicle: acetone
  T/C: 145 % of control
dose: 115.0 mg/kg/injection, schedule: Q01DX010 (ip), vehicle: acetone
  survivor count: 2 of 6
dose: 170.0 mg/kg/injection, schedule: Q01DX010 (ip), vehicle: acetone
  survivor count: 0 of 6

## c1cc2c3c(c1)ncn3CCC2
dose: 100.0 mg/kg/injection, schedule: Q04DX003 (ip), vehicle: other
  survivor count: 6 of 6
dose: 200.0 mg/kg/injection, schedule: Q04DX003 (ip), vehicle: other
  survivor count: 4 of 6

## C/C(CCC(=O)O)=N/O
[6]
  survivor count: 5 of 6

## CC(=O)[C@H]1CC[C@H]2[C@@H]3C[C@H](F)C4=CC(=O)CC[C@]4(C)[C@@]3(F)[C@@H](O)C[C@]12C
[3]
  survivor count: 5 of 6 and 6 of 6
[7]
  survivor count: 5 of 6
[8]
  survivor count: 6 of 6
dose: 200.0 mg/kg/injection, schedule: Q04DX003 (ip), vehicle: Klucel (hydroxypropylcellulose) (HPC)
  survivor count: 5 of 6
[9]
  survivor count: 5 of 6 and 6 of 6

## COC1C(=O)CCC2(CO2)C1(O)C1(C)OC1CCC(C)C (stereo not drawn)
dose: 175.0 mg/kg/injection, schedule: Q01DX009 (ip), vehicle: saline with Tween-80
  survivor count: 2 of 3
dose: 350.0 mg/kg/injection, schedule: Q01DX009 (ip), vehicle: saline with Tween-80
  survivor count: 0 of 3

## NCCc1ccc(O)c(O)c1
dose: 75.0 mg/kg/injection, schedule: Q01DX009 (ip), vehicle: saline
  T/C: 138 % of control [5 of 6 alive]
dose: 150.0 mg/kg/injection, schedule: Q01DX009 (ip), vehicle: saline
  T/C: 133 % of control [5 of 6 alive]
dose: 300.0 mg/kg/injection, schedule: Q01DX009 (ip), vehicle: saline
  T/C: 139 % of control

## Nc1c(Br)cc(Br)cc1Br
[10]
  T/C: 138 % of control

## O=C1NC(c2cccc(OCc3ccccc3)c2)Nc2ccccc21 (stereo not drawn)
dose: 6.25 mg/kg/injection, schedule: Q01DX009 (ip), vehicle: Klucel (hydroxypropylcellulose) (HPC)
  survivor count: 5 of 6
[11]
  T/C: 127 % of control
  survivor count: 6 of 6
dose: 125.0 mg/kg/injection, schedule: Q01DX009 (ip), vehicle: Klucel (hydroxypropylcellulose) (HPC)
  T/C: 144 % of control

## Cn1cnc([N+](=O)[O-])c1Sc1ncnc2nc[nH]c12
[5]
  T/C: 127 % of control
dose: 100.0 mg/kg/injection, schedule: Q04DX003 (ip), vehicle: saline sonified
  T/C: 127 and 135 % of control
dose: 200.0 mg/kg/injection, schedule: Q04DX003 (ip), vehicle: saline sonified
  T/C: 131 % of control
[6]
  survivor count: 4 of 6

## COc1cccc(Sc2ccc([N+](=O)[O-])c3no[n+]([O-])c23)c1
dose: 15.0 mg/kg/injection, schedule: Q01DX009 (ip), vehicle: saline with Tween-80
  survivor count: 5 of 7

## Cc1ccccc1C[P+](c1ccccc1)(c1ccccc1)c1ccccc1
dose: 2.3 mg/kg/injection, schedule: Q04DX003 (ip), vehicle: Klucel (hydroxypropylcellulose) (HPC)
  survivor count: 6 of 6
dose: 5.2 mg/kg/injection, schedule: Q04DX003 (ip), vehicle: Klucel (hydroxypropylcellulose) (HPC)
  survivor count: 0 of 6
dose: 6.25 mg/kg/injection, schedule: Q01DX009 (ip), vehicle: saline
  survivor count: 5 of 6
dose: 12.5 mg/kg/injection, schedule: Q01DX009 (ip), vehicle: saline
  survivor count: 3 of 6
dose: 20.0 mg/kg/injection, schedule: Q04DX003 (ip), vehicle: saline with Tween-80
  survivor count: 5 of 6

## O=S(=O)(Nc1ccc(NS(=O)(=O)c2ccccc2)cc1)c1ccccc1
dose: 25.0 mg/kg/injection, schedule: Q01DX009 (ip), vehicle: Klucel (hydroxypropylcellulose) (HPC)
  survivor count: 6 of 6
[10]
  survivor count: 5 of 6
[3]
  survivor count: 6 of 6
[8]
  survivor count: 6 of 6
[9]
  survivor count: 5 of 5

## CN(Cc1ccc(Nc2ccccc2)cc1)C1CCCCC1
dose: 200.0 mg/kg/injection, schedule: Q01DX009 (ip), vehicle: other
  T/C: 142 % of control

## ClC(Cl)(Cl)c1nc2nccnc2[nH]1
[7]
  survivor count: 3 of 6
dose: 100.0 mg/kg/injection, schedule: Q04DX003 (ip), vehicle: saline with Tween-80
  T/C: 145 % of control
dose: 150.0 mg/kg/injection, schedule: Q04DX003 (ip), vehicle: saline with Tween-80
  T/C: 127 % of control
[2]
  survivor count: 4 of 6
